Assay [1] has as its target T1, human 5T4 antigen (human, UniProt Q13641 32-355, limits assumed).
T1 construct: Isolated antigen as used in BIACORE and ELISA; also called 5T4 oncofetal antigen
T1 sequence (looked up): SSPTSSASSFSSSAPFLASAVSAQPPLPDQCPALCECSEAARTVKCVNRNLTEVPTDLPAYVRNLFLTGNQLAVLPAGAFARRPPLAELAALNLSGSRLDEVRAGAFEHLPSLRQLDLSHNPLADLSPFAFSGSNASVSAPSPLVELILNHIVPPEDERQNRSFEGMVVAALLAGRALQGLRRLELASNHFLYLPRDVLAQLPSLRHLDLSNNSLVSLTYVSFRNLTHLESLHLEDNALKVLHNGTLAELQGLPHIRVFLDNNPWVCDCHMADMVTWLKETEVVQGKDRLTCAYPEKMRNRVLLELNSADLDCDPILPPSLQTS
Kind of assay: Western blot of avidin-bound (A) and supernatant (S) protein from cells with (+B) or without (-B) biotin; the detecting antibody is not printed on the sheet, murine H8 by paragraph 236. For orientation: Immunoblotting shows a protein as a band on a membrane.

For assay [2], the target named is T1, human 5T4 antigen. Kind of assay: densitometry of the H8-reactive band of the Western blot of FIG. 3A, with linear regression.
In assay [3] the target is T1, human 5T4 antigen. Description: Western blot of avidin-bound (A) and supernatant (S) fractions after biotin treatment of the cells; the detecting antibody is not printed on the sheet, murine H8 by paragraph 236.
Assay [4] has as its target T1, human 5T4 antigen. Kind of assay: Western blot of diluted CT26/5T4 cell extracts; called the H8-reactive band in paragraph 24 and paragraph 239.
The target in assay [5] is T1, human 5T4 antigen. Kind of assay: Western blot of lysates of cultured cells and of allografted tumors; the detecting antibody is not printed on the sheet, murine H8 by paragraph 236.
Assay [6] deals with T1, human 5T4 antigen. Kind of assay: BIACORE, human 5T4 antigen immobilized on a CM5 chip. (In general: In SPR one partner is held on a chip, and binding of the other changes the refractive index at the surface.)
For assay [7], the target named is T1, human 5T4 antigen. Kind of assay: plasmon resonance.

No constants are given. Whether binding was seen depends on the method and setting. Some entries that bind do so weakly or less than the wild type.

B1: murine H8 anti-5T4 antibody (antibody, V domains shown)
VH: EVQLQQSGPDLVKPGASVKISCKASGYSFTGYYMHWVKQSHGKSLEWIGRINPNNGVTLYNQKFKDKAILTVDKSSTTAYMELRSLTSEDSAVYYCARSTMITNYVMDYWGQVTSVTVSS
VL: SIVMTQTPTFLLVSAGDRVTITCKASQSVSNDVAWYQQKPGQSPTLLISYTSSRYAGVPDRFIGSGYGTDFTFTISTLQAEDLAVYFCQQDYNSPPTFGGGTKLEIK
notes: also called mAb5T4; H8 antibody
Consider B1, for which the binding result in the assay with human 5T4 antigen [1], in the assay with human 5T4 antigen [2], with human 5T4 antigen [3], in the assay with human 5T4 antigen [4] and with human 5T4 antigen [5] was “binds” each time.

B2: Chimeric H8 (mVH/mVL) (antibody, V domains shown)
VH: EVQLQQSGPDLVKPGASVKISCKASGYSFTGYYMHWVKQSHGKSLEWIGRINPNNGVTLYNQKFKDKAILTVDKSSTTAYMELRSLTSEDSAVYYCARSTMITNYVMDYWGQVTSVTVSS
VL: SIVMTQTPTFLLVSAGDRVTITCKASQSVSNDVAWYQQKPGQSPTLLISYTSSRYAGVPDRFIGSGYGTDFTFTISTLQAEDLAVYFCQQDYNSPPTFGGGTKLEIK
notes: also called chimeric H8 antibody; chimeric versions of H8
Take B2: in the assay with human 5T4 antigen [6], the binding entry was “binds”.

B3: Murine H8/CM (antibody, V domains shown)
VH: EVQLQQSGPDLVKPGASVKISCKASGYSFTGYYMHWVKQSHGKSLEWIGRINPNNGVTLYNQKFKDKAILTVDKSSTTAYMELRSLTSEDSAVYYCARSTMITNYVMDYWGQVTSVTVSS
VL: SIVMTQTPTFLLVSAGDRVTITCKASQSVSNDVAWYQQKPGQSPTLLISYTSSRYAGVPDRFIGSGYGTDFTFTISTLQAEDLAVYFCQQDYNSPPTFGGGTKLEIK
notes: also called murine H8-calicheamicin conjugates
In the case of B3, the binding entry in the assay with human 5T4 antigen [7] is on record as “binds”.

The values are drawn from patent publication US20060088522A1, “Humanized anti-5T4 antibodies and anti-5T4/calicheamicin conjugates” (Wyeth, priority 2004, published 2006).
